For 2 compounds, Encapsulation efficiency, PDI and Particle size results are on record in patent publication EP4837902A1, “LIPID COMPOUND AND LIPID NANOPARTICLE FOR DELIVERY” (dated 2026).

Molecules are shown by their SMILES. Structures were worked out from names or drawings and are uncertain.

Data set [1] in a line: Encapsulation efficiency of mRNA-loaded LNPs (RiboGreen assay kit, 10% OTG as demulsifier). The note with it: LNP of compound, cholesterol, DSPC, DMG-PEG2000 in molar ratio 50:38.5:10:1.5; encapsulated mRNA. The method, then:
(§1) An mRNA stock solution was dispersed in a 20 mM acetic acid solution (pH 5.3) to a final concentration of 200 µg/mL (aqueous phase). The example compound, cholesterol, DSPC, and DMG-PEG2000 were mixed in a molar ratio of 50:38.5:10:1.5 to form a mixed lipid (oil phase). Flow rates of the aqueous phase and the oil phase were controlled to mix mRNA with the lipid mixture via T-junction mixing, to obtain LNP encapsulated mRNA. The encapsulated LNPs were diluted with a buffer solution and then concentrated by ultrafiltration. The diluent was replaced. Finally, the LNPs were concentrated to an mRNA concentration of 100 µg/mL, and the pH of the LNPs was adjusted to about 7.0-8.5. Finally, the total mRNA content and free mRNA content in the LNPs were measured by using a RiboGreen assay kit and 10% OTG as a demulsifier, and the encapsulation efficiency of the LNPs was calculated. The final LNP product was diluted with a diluent, added (1 ml) to a particle size cell, and placed on a Malvern Zetasizer instrument to measure the particle size of the LNPs.

A short description of data set [2]: Particle size and PDI of LNPs (Malvern Zetasizer). The following applies: LNP of compound, cholesterol, DSPC, DMG-PEG2000 in molar ratio 50:38.5:10:1.5; encapsulated mRNA. The method, then:
as §1

In the case of `CCCCCCCCC(CCCCCC)C(=O)OCCCCCCC1(CCCCCCOC(=O)C(CCCCCC)CCCCCCCC)OCC(CCCCN(C)C)O1` (stereo not drawn), in data set [1], the Encapsulation efficiency is 98.71%. For the same compound, in data set [2], the PDI was 0.0152 and the Particle size is listed as 79.91 nm.

For the compound `CCCCC/C=C\C/C=C\CCCCCCCCC(CCCCCCCC/C=C\C/C=C\CCCCC)OC(=O)CCCN(C)C`, in data set [1], the Encapsulation efficiency turned out to be 92.17%. In data set [2], the PDI is reported as 0.1415 and the Particle size amounted to 74.36 nm.
